Laboratory results from the supplement of paper PMC5949888.
Most values lie at the floor of the assay. Slopes are relative: functional sequences can read slightly below zero.

Test system: Saccharomyces cerevisiae PS128 hsf1 delta, HSF1(1-493) fusion
Experiment: growth estimate (transactivation domain function in HSF1 fusion, heat-shock survival) (a.u. (slope of normalised read count over time)); higher = stronger growth at 37°C, i.e. more transactivation activity
Details: library: random library

Substance | growth estimate
QQFPKCIVSWGEFK | -0.231
DLGVMGW | < -0.25
WIVTFLRCVSQELGGGRGCI | < -0.25
RMDMGPRLSGLRVLVHFLLR | < -0.25
TVNAEKDTKQSLGDVALSIK | -0.246
TFLHASRLYGW | < -0.25
PVCQLRLICQLCVSPQRPEF | < -0.25
VKATFRRADWGLVACLRPGP | < -0.25
IGLSVLAE | < -0.25
AIIAVTELVLVEATLESIRM | -0.248
ANEIVRTYVIDTLLDRS | -0.245
PEL | < -0.25
KVRPT | -0.245
GIAMPMKRPGSLVEPTIGIH | < -0.25
CISKSTGWDDQYRAI | < -0.25
GQVDFVSERVYSPGSNLYCA | < -0.25
PNPQSLLSSSIPYSARLLGV | < -0.25
QYFCLVFKGGLT | < -0.25
YVTGYIRGRGTHV | < -0.25
PGV | < -0.25
VRACALYAAFWIIASSRTHC | < -0.25

Substance | growth estimate
VVLRGGCLAFITSAAIQQGH | < -0.25
LAGAGLRRRRLMPRQRHDIN | < -0.25
ATRQAAHNNSRGQPSPIMFP | < -0.25
QRELWPYDDIAM | -0.105
PNRSFVLKGLLIRVTGTLVL | < -0.25
ARGRKFLGIGIVRR | < -0.25
SEMVTRGCTHRARISGVDAS | < -0.25
SELRRVPPKGNRTRSQRVAV | < -0.25
VGPGYVAIAVLNPKVV | < -0.25
GGRYKY | -0.246
GYNGGF | < -0.25
RSGCDCLISMSGSGD | < -0.25
DTDGRYQGAGEQGNIGPRYA | < -0.25
RPASCPDSAYPPSR | < -0.25
LVHKAQEILMGLTSRLPSTA | < -0.25
RSPAFAVIWSPPSFGLRLWA | < -0.25
TRKIIPDPRRIHVQMVTHAT | < -0.25
RVDLV | < -0.25
MRRLVDPGKARKF | < -0.25
VNCQGNVLCPVLSNGAAVTG | < -0.25
GRATLSIPCKSE | < -0.25

Substance | growth estimate
AGMGLHTYIISGGCGDPMYQ | < -0.25
AAVSRNRQRGLVCTLTS | -0.245
YWLGI | < -0.25
LHTSC | < -0.25
RICMLPIW | < -0.25
PQPVIFRT | < -0.25
QIGCLHRLAVGGMHQGKT | < -0.25
VVLTLSLL | < -0.25
VDPSI | < -0.25
ESRVMIIVGPQRRLHSVMPE | < -0.25
ALQDRSSVQLPHA | -0.246
RLNCQRHSS | < -0.25
VVACDRFGLDSSTAEATDRL | < -0.25
ITYNQ | < -0.25
AETTFLTRMAACRMSFPIVW | -0.25
MRSASIALCDPSSVFLAQAS | < -0.25
PVYHGSLRVVGKKMSGRLCH | < -0.25
IRGRIYDPHFYSVTDSALAR | < -0.25
SRIIIFRIYVVEGQVLVVSS | < -0.25
RRQETG | < -0.25
CSHGL | < -0.25

Substance | growth estimate
YKAGKRWLVVKLVYGSARTE | < -0.25
CQGCWDEYERRSTRML | < -0.25
SHFLASMTHNFANQVCVHLR | < -0.25
QSLKWHRLSGDHFVVPRH | < -0.25
RMHPVLEF | < -0.25
LRRGFVLPSTSLPLR | < -0.25
SAQASKLP | < -0.25
SALEVSWI | < -0.25
THRVYTSASTAGVVSALAYL | < -0.25
GVCSGNQQFRSEHSVLHTGP | < -0.25
GMVGIA | < -0.25
TDGHVVGRVR | < -0.25
CDVCHGGDLWRCYSKVLSGT | < -0.25
CLL | < -0.25
GEIHSRGHIPMGVDAQEARV | -0.226
DVGRLGSRSIRTLPDTIWLA | < -0.25
MGLSRVGNYDT | < -0.25
VWYEDH | < -0.25

Look-ups from the results shown.
Value of SALEVSWI under growth estimate: < -0.25
Value of CLL under growth estimate: < -0.25
Value of GVCSGNQQFRSEHSVLHTGP under growth estimate: < -0.25
Value of GEIHSRGHIPMGVDAQEARV under growth estimate: -0.226
